Test results from publication PMC6434023, “A TonB-dependent transporter is required for secretion of protease PopC across the bacterial outer membrane” (Nature Communications, 2019).

Columns and labels:
Test in all cases: two-hybrid; bacterial two-hybrid (BACTH) in E. coli BTH101; fragments fused N- or C-terminally to T25 and T18 of CyaA; blue colour on X-Gal/IPTG plates and β-galactosidase specific activity
[1] = biological target: C-terminal domain of TonB1 of the Ton^Oar system (TonB1 147-250) (M. xanthus)
[2] = biological target: C-terminal domain of the TonB protein MXAN_0276 (MXAN_0276 167-269) (M. xanthus) (UniProt Q1DFL6)
[3] = biological target: C-terminal domain of the TonB protein MXAN_0820 (MXAN_0820 163-266) (M. xanthus) (UniProt Q1DE40)

Measured: binding

B1: periplasmic N-terminal region of Oar that bears NTE and plug domains (Oar 24-248) (domain or fragment, UniProt P38370 24-248)
chain: AFAQSSTIIGTVIDAQSRQPAADVVVTATSPNLQGEQTVVTDAQGNYRIPQLPPGDYTLRFEKEQFKPYARSAIQLRLNRTIRVNVELLPEALGEVVEIVGAPPTIDVGSTTMGVNVDQEFIKRIAVARPGGKGGATRSFESLAELAPGAQNDNYGVSINGSTSPENGYVVDGLSTNDPAFGVNASPLSIEFVQDVNIITGGYMPEFGRSTGGVINAVTRSGSNE
binds: all assays above

Results are given in words; binding and its absence hold for the method and conditions named. Binding calls can cover weak binding; strength is not graded here.
